# Assay results published in patent US20110065208A1, “DETERMINATION AND ESTIMATION OF ABSORPTION AND DISTRIBUTION OF SUBSTANCES IN BRAIN TISSUE” (SOVICELL GMBH, priority 2008, published 2011).
# Test: Brain lipid-water partition coefficient log MAbrain (membrane affinity) on immobilized brain lipid membranes
# Type: physicochemical
# Procedure: 440 mg of a brain lipid extract (Avanti Polar Lipids Inc., USA) are dissolved in 50 mL of chloroform. This solution is evaporated under reduced pressure in a glass flask in a rotating rotary evaporator, wherein a thin lipid film deposits on the wall.
# The lipid film is swollen overnight in a water vapor atmosphere; subsequently, 88 mL of a buffer (20 mM HEPES, pH 7.0, 30 mM NaCl, 2 mM CaCl2) are added, and the lipid film is vesiculated by means of a high-pressure homogenizer.
# 5 g of the carrier material provided above are added to the vesicle solution thus produced and incubated overnight. Excess lipid is removed by washing three times with buffer (20 mM HEPES, pH 7.0, 30 mM NaCl, 2 mM CaCl2). Finally, this is followed by rebuffering in PBS (phosphate-buffered saline, 10 mM sodium phosphate, 0.9% NaCl, pH 7.4) and filling up to 25 mL with buffer. The suspension obtained is then used to determine the brain lipid-water partition coefficient, as described below. […]
# To each of these wells, 45 μL of a 500 μM solution of trifluoperazine in PBS/10% DMSO are added, and after mixing by resuspension, the solid body is separated from the supernatant by sedimentation. The concentration of the substance in the supernatant is quantified by UV measurement, and the brain lipid-water partition coefficient log MAbrain is calculated through the following equation: […]
compound,measurement,setting,value
"CC(C)NCC(O)COc1ccc(CC(N)=O)cc1 (centres unmarked) [Atenolol, atenolol]",logMAbrain,"Table 1, PBS pH 7.4, quantified by HPLC",0.90
same,logMAbrain,"Table 4, repeated parameter set",0.90
